Source: article PMC4425511
Results are given in words; binding and its absence hold for the method and conditions named. Some entries that bind do so weakly or less than the wild type.

Biological target: SHORT … PHASE (SVP) (Arabidopsis thaliana), Q9FVC1
Assay: two-hybrid; yeast strain PJ69-4; bait and prey plasmids (pDEST22, pDEST32) in two mating types, mated; grown at 21°C on selective media lacking leucine, tryptophan and histidine
Conditions: remark: other sources report otherwise

binding: binds
B1: MADS … FLOWERING2 splice variant 1 (MAF2var1), Q9FPN7 1-196 (protein)
chain: MGRKKVEIKRIENKSSRQVTFSKRRNGLIEKARQLSILCESSIAVLVVSGSGKLYKSASGDNMSKIIDRYEIHHADELEALDLAEKTRNYLPLKELLEIVQSKLEESNVDNASVDTLISLEEQLETALSVTRARKTELMMGEVKSLQKTENLLREENQTLASQVGKKTFLVIEGDRGMSWENGSGNKVRETLPLLK
